Measurements reported in PubChem BioAssay AID1347076 (National Center for Advancing Translational Sciences (NCATS), 2019).
Out of some 400,000 compounds screened, about 13,000 (3.2%) were called active. The shares of active, inactive and inconclusive entries below differ from those in the screen. Calls come from the whole dose curve; as a rule, active = well fitted cell-killing curve with a large enough effect; inconclusive = small, poorly fitted or top-dose-only effect, or effect the other way; inactive = flat fitted curve, though single readings scatter. Where the call is inconclusive, the potency comes from a doubtful curve fit.

Assay: qHTS assay for MDR1-selective chemotherapeutics: Primary screen using the drug-selected MDR subline cells KB-V1; note: nearly all actives have a fitted effect of over 60% in size
Conditions: KB-V1 MDR cells viability, CellTiter-Glo, 72 h; series mostly up to 46.1 µM
How it was run: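 Readout: CellTiter-Glo luminescence, 10 min after addition. Cells: KB-V1 MDR subline, 72 h at 37 degrees C with compound. Analysis: corrected, normalized data fitted to concentration-effect curves.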
Potency is the fitted concentration of half-maximal effect.

Structure (SMILES) | Potency
CNC(=O)c1c(O)c2cccc3c2n(c1=O)CCC3 | inconclusive: 29.1 µM [cytotoxic, single point]
CN1CCN(c2ccc(S(=O)(=O)N3CCCCC3)cc2NC(=O)/C=C/c2ccc(OC(F)F)cc2)CC1 | inconclusive: 20.6 µM [cytotoxic, single point]
COc1ccccc1CNc1nc(NCc2ccccc2OC)c2sccc2n1 | inconclusive: 2.31 µM [cytotoxic, full curve, poor fit]
O=C(NCCCNC(=O)c1ccccc1)c1ccccc1 | inactive
CC(C)(O)[C@H](O)COc1c2occc2cc2ccc(=O)oc12 | inconclusive: 9.2 µM [rising, partial curve, poor fit]
CC(OC(=O)c1oc2ccccc2c1CSC1CCCCC1)C(=O)NC(N)=O (centres undefined) | inconclusive: 29.1 µM [cytotoxic, single point]
CC(C)(C)C(=O)CSc1nnc(Nc2ccccc2)s1 | inconclusive: 20.6 µM [cytotoxic, partial curve, poor fit]
CCC1C(=O)N=C(SCC(=O)Nc2ccc(S(N)(=O)=O)cc2)NC1=O (centres undefined) | inconclusive: 18.4 µM [rising, single point]
Nn1c(COc2cccc(Br)c2)nnc1SCC(=O)NCC1CCCO1 (centres undefined) | inconclusive: 20.6 µM [rising, single point]
O=C(Nc1cc(=O)[nH]c2ncnn12)c1ccco1 | inconclusive: 25.9 µM [rising, single point]
CC(Sc1nnc(Cc2cccs2)n1C1CCCCC1)C(=O)N1CCc2ccccc21 (centres undefined) | inconclusive: 18.4 µM [cytotoxic, single point]
N#C/C(=C\c1ccccc1)C(=O)NNS(=O)(=O)c1ccc(Br)cc1 | inconclusive: 29.1 µM [rising, single point]
Cc1ccc(NC(=O)Cn2cc3c(n2)CCC(C)C3)cc1C (centres undefined) | inactive
Cn1nc(C(F)(F)F)c(-c2cccc(C(F)(F)F)c2)c1NC(=O)CSCC(=O)O | inconclusive: 16.4 µM [rising, single point]
C[C@H]1CN([C@@H](C)CO)C(=O)c2cc(C#Cc3cccnc3)cnc2O[C@H]1CN(C)Cc1ccc(F)cc1 | inactive
COC(=O)C[C@@H]1OC[C@H](Cc2ccccc2)N1S(=O)(=O)c1ccc(C)cc1 | inconclusive: 18.4 µM [cytotoxic, partial curve]
C=CCN(CC=C)C(=S)NC(=O)c1ccc(OC)c(Br)c1 | inconclusive: 18.4 µM [cytotoxic, single point]
O=C(CS(=O)(=O)c1ccccc1)N(CCCN1CCOCC1)c1nc2c(F)cccc2s1 | inconclusive: 18.4 µM [cytotoxic, partial curve, poor fit]
Cc1ccc(S(=O)(=O)NCc2ccccc2)cc1C(=O)N(C)Cc1ccccc1F | inconclusive: 9.2 µM [cytotoxic, partial curve]
COc1ccc(CC(=O)Nc2nc(C(C)(C)C)cs2)cc1 | inconclusive: 23.1 µM [cytotoxic, single point]
C/C(CC(=O)Nc1ccc(Cl)cc1C(F)(F)F)=N\NC(=O)c1ccccn1 | inconclusive: 11.6 µM [rising, partial curve, poor fit]
CC(C)CC(=O)N/C(N)=N/c1nc2ccccc2o1 | inactive
CC(Sc1ccccc1)C(=O)NNC(=O)c1csc(N2CCOCC2)n1 (centres undefined) | inconclusive: 25.9 µM [cytotoxic, single point]

Structure (SMILES) | Potency
O=C(CSc1ccc(-c2ccc(F)cc2)nn1)Nc1ccc2c(c1)OCCO2 | inactive
O=C(Nc1ccccc1-c1nc2ccccc2[nH]1)c1ccc(S(=O)(=O)N2CCCCC2)cc1 | inconclusive: 2.06 µM [cytotoxic, full curve]
COc1ccc(Cl)cc1-c1nc(-c2ccc(NC(=O)c3cccs3)cc2)no1 | inactive
Oc1c(C(Nc2nc3ccccc3s2)c2ccco2)ccc2cccnc12 (centres undefined) | inconclusive: 2.59 µM [cytotoxic, partial curve, poor fit]
O=S(=O)(NC(=NC1CCCCC1)c1ccccc1)c1ccc(F)cc1 | inactive
O=C(CN1CCCc2ccccc21)NCc1ccc2c(c1)OCO2 | inconclusive: 23.1 µM [cytotoxic, partial curve, poor fit]
O=[N+]([O-])c1nn(-c2ccc3c(c2)OCCO3)n(O)c1=Nc1ccc(Cl)cc1 | inconclusive: 29.1 µM [cytotoxic, single point]
CC(C(=O)N1CCc2ccccc21)N1CCN(c2cccc(C(F)(F)F)c2)CC1 (centres undefined) | inactive
CCOC(=O)c1sc(NC(=O)CCCn2nc([N+](=O)[O-])cc2C)c(C(=O)OCC)c1C | inconclusive: 0.731 µM [cytotoxic, full curve]
O=C(c1cc(COc2ccc(F)cc2Cl)on1)N1CCCC(OCc2cccnc2)C1 (centres undefined) | active: 9.2 µM
COc1cc(/C=C/C(=O)OCC(=O)N2CCCC2)ccc1OCC#N | inconclusive: 29.1 µM [rising, single point]
CCN(CC)c1ccc(C(=O)OCc2cc(=O)oc3cc(O)ccc23)cc1 | inconclusive: 20.6 µM [cytotoxic, single point]
CNC(=O)c1cc(OCC(F)(F)F)ccc1OCC(F)(F)F | inconclusive: 16.4 µM [rising, single point]
COc1ccc(/C=C(\NC(=O)c2ccco2)C(=O)N2CCCCC2)cc1 | inconclusive: 3.26 µM [rising, partial curve, poor fit]
O=C(NCCSSCCNC(=O)c1ccccc1)c1ccccc1 | inconclusive: 29.1 µM [cytotoxic, single point]
O=C(Cn1cnnn1)NC1CCCN(Cc2ccccc2F)C1 (centres undefined) | inconclusive: 7.31 µM [rising, partial curve]
Cc1cccc(OCC(=O)Nc2ccc3oc(-c4ccccc4F)nc3c2)c1 | inactive
O/N=C/c1cc2ccccc2n1Cc1ccccc1F | inactive
COc1ccc(NC(=O)c2cc(S(=O)(=O)NCCC3=CCCCC3)ccc2F)cc1 | inconclusive: 2.06 µM [cytotoxic, partial curve, poor fit]
O=C(c1cnc(N2CCCCC2)c2ccccc12)N1CCN(c2ccc(Cl)cc2)CC1 | inactive
Nc1c(C(=O)Nc2ccc3c(c2)OCCO3)nnn1Cc1ccc(Br)cc1 | inactive
COc1ccc(C(=O)Nc2ccccc2-c2nc(-c3ccc(OC)cc3)no2)cc1 | inconclusive: 29.1 µM [cytotoxic, single point]
Cc1ccc(C2CC(C(F)(F)F)n3nc(C(=O)NCc4c(C)nn(C)c4C)c(Cl)c3N2)cc1 (centres undefined) | active: 5.8 µM

Structure (SMILES) | Potency
Nc1cccc(-c2cn3cc(C(F)(F)F)cc(Cl)c3n2)c1 | inconclusive: 10.3 µM [cytotoxic, partial curve]
O=C1OC(Nc2ccc(F)cc2F)c2ccccc21 (centres undefined) | inconclusive: 3.26 µM [rising, partial curve]
CCOC(=O)c1c(C)n(C)c2ccc(OCC(O)CN3CCN(C)CC3)cc12 (centres undefined) | inactive
S=C(NCCCN1CCOCC1)N1CCN(c2cccc(Cl)c2)CC1 | inconclusive: 18.4 µM [cytotoxic, partial curve]
CCCC(=O)N1CCC1(C)C(=O)Nc1ccc2nc(C)ccc2c1 (centres undefined) | inactive
Cc1ccc(C(=O)N/N=C\c2ccncc2)s1 | inconclusive: 29.1 µM [rising, partial curve, poor fit]
C=C1CCN([C@@H](CC(C)C)C(=O)NCc2ccc(OC)cc2)S(=O)(=O)c2ccccc21 | inconclusive: 32.6 µM [rising, single point]
Cc1nc(C)c(CC(=O)N2CCc3c([nH]c4ccccc34)C2c2ccccn2)s1 (centres undefined) | inconclusive: 20.6 µM [cytotoxic, single point]
Cc1sc2c(c1C)c(=O)n(CCc1ccccc1)c(=O)n2Cc1ccc(F)cc1 | inactive
Cc1cccc(NC(=O)C2CCCN(S(=O)(=O)c3ccc4c(c3)oc(=O)n4C)C2)c1 (centres undefined) | inactive
CC1(C(=O)NCc2cccnc2)Cc2c(-c3cccc(C(F)(F)F)c3)ccnc2O1 (centres undefined) | inconclusive: 18.4 µM [cytotoxic, partial curve]
COc1ccc(OC)c(/C=C(\C#N)c2nc3ccccc3c(=O)[nH]2)c1 | inconclusive: 23.1 µM [rising, single point]
O=C(CCC(=O)c1ccccc1)Nc1ccc(F)c(Cl)c1 | inactive
O=c1ccc(S(=O)(=O)N2CCCC2)cn1Cc1ccc(Cl)cc1Cl | inactive
C[C@@H]1CN([C@H](C)CO)C(=O)CCCn2nncc2CO[C@H]1CN(C)C(=O)NC1CCCCC1 | inconclusive: 29.1 µM [rising, single point]
CS(=O)(=O)N(CC(=O)NC1CCCCC1)Cc1ccc(F)cc1 | inconclusive: 14.6 µM [cytotoxic, partial curve]
CCC(C)(C)NC(=O)C(c1ccccn1)N(C(=O)c1csnn1)c1ccc(C)cc1 (centres undefined) | inactive
Cc1ccc(S(=O)(=O)NCC(=O)NCC(=O)NCCc2ccc(Cl)cc2)cc1C | inactive
Cc1cc(NC(=O)CSc2ccc3nnc(-c4cccc(F)c4)n3n2)no1 | inactive
COc1ccccc1CNC(=O)c1ccoc1C | inconclusive: 20.6 µM [cytotoxic, single point]
CCOc1ncccc1C(=O)OCC(=O)Nc1ncc(C(F)(F)F)cc1Cl | inconclusive: 13 µM [rising, partial curve]
CCOC(=O)Cc1csc(NC(=O)CSc2nc(=O)[nH]c3c2CCC3)n1 | inactive
Cc1cccn2c(=O)nc(SCC(=O)c3ccc(Cl)cc3)nc12 | inconclusive: 16.4 µM [cytotoxic, single point]

Reformatted in markdown: entries from further up.

| Structure (SMILES) | Potency |
| --- | --- |
| N#C/C(=C\c1ccccc1)C(=O)NNS(=O)(=O)c1ccc(Br)cc1 | inconclusive: 29.1 µM [rising, single point] |
| COc1cc(/C=C/C(=O)OCC(=O)N2CCCC2)ccc1OCC#N | inconclusive: 29.1 µM [rising, single point] |
| Cc1ccc(C2CC(C(F)(F)F)n3nc(C(=O)NCc4c(C)nn(C)c4C)c(Cl)c3N2)cc1 (centres undefined) | active: 5.8 µM |
